# Reference: the supplement of paper PMC4683952
# Structures can show the parent of a compound that is named as a salt. The campaign covered roughly 1,200 compounds. About 50 (4%) showed activity. Rule as the data show it: all actives reach 1.3 or more but so do some inactives. The list shows a part of the results.
# Test system: Lgr5 (MarsCy1-Lgr5-EGFP, U2OS)
# Assay: cell-surface Lgr5 expression (SCi1 fluorescence, background-subtracted) relative to WT DMSO (fold of DMSO control); higher = more Lgr5 at the plasma membrane, active = hit call of the paper
# Settings: U2OS MarsCy1-Lgr5-EGFP stable; treatment time: overnight; 16 µM; library: Johns Hopkins Clinical Compound Library
row,SMILES,cell-surface Lgr5 expression
1,COc1cc2c(cc1OC)[C@@H](Cc1cc(OC)c(OC)c(OC)c1)[N+](C)(CCCOC(=O)CC/C=C/CCC(=O)OCCC[N+]1(C)CCc3cc(OC)c(OC)cc3[C@H]1Cc1cc(OC)c(OC)c(OC)c1)CC2 (stereo partly drawn) [Mivacurium chloride],inactive: 1.16
2,CCCc1c2oc(C(=O)O)cc(=O)c2cc2c(=O)cc(C(=O)O)n(CC)c12 [Nedocromil sodium],inactive: 1.05
3,CC(=O)O[C@]1(C(C)=O)CC[C@H]2[C@@H]3C=C(Cl)C4=CC(=O)[C@@H]5C[C@@H]5[C@]4(C)[C@H]3CC[C@@]21C [Cyproterone acetate],inactive: 1.25
4,Clc1ccc(CO/N=C(\Cn2ccnc2)c2ccc(Cl)cc2Cl)c(Cl)c1 [Oxiconazole nitrate],inactive: 0.871
5,"CC(=O)OC[C@H]1O[C@@H](n2ncc(=O)[nH]c2=O)[C@H](OC(C)=O)[C@@H]1OC(C)=O [Azaribine (6-Azauridine 2',3',5'-triacetate)]",inactive: 0.832
6,N[C@@H]1CONC1=O [d-Cycloserine],inactive: 1.29
7,CCCCCCCCCCCCCCCC(=O)OC[C@@H](NC(=O)C(Cl)Cl)[C@H](O)c1ccc([N+](=O)[O-])cc1 [Chloramphenicol palmitate],inactive: 0.793
8,O=C([O-])[O-].[Mg+2] [Magnesium carbonate],inactive: 1.15
9,[K+].[OH-] [Potassium hydroxide],inactive: 1.11
10,Clc1ccc(Cn2c(CN3CCCC3)nc3ccccc32)cc1 [Clemizole],inactive: 1.27
11,COc1cc2nc(N(C)CCCNC(=O)C3CCCO3)nc(N)c2cc1OC (stereo not drawn) [Alfuzosin],inactive: 0.846
12,Nc1nc(O)c2ncn(COC(CO)CO)c2n1 [Ganciclovir sodium],inactive: 0.959
13,O=[N+]([O-])c1ccc(/C=N/O)o1 [Nifuroxime],inactive: 0.992
14,CC(=O)Oc1ccccc1C(=O)O [Aspirin],inactive: 1.29
15,N=C(N)NS(=O)(=O)c1ccc(N)cc1 [Sulfaguanidine],inactive: 0.791
16,NC[C@@H]1CC[C@@H](N)[C@@H](O[C@H]2[C@H](O)[C@@H](O[C@H]3O[C@H](CO)[C@@H](O)[C@H](N)[C@H]3O)[C@H](N)C[C@@H]2N)O1 [Dibekacin],inactive: 0.922
17,CC1=C(/C=C/C(C)=C/C=C/C(C)=C/C(=O)O)C(C)(C)CCC1 [Retinoic acid],inactive: 1.14
18,"CC1=C(/C=C/C(C)=C/C=C/C(C)=C/C(=O)O)C(C)(C)CCC1 [Tretinoin (Retinoic acid, all trans)]",inactive: 1.17
19,NC(=O)c1cc[n+](CC2=C(C(=O)[O-])N3C(=O)[C@@H](NC(=O)[C@@H](c4ccccc4)S(=O)(=O)O)[C@H]3SC2)cc1 [Cefsulodin],inactive: 1.04
20,O.O.O=P([O-])([O-])O.[Na+].[Na+] [Sodium phosphate dibasic],inactive: 1.05
21,CCc1c(C)[nH]c2c1C(=O)C(CN1CCOCC1)CC2 (stereo not drawn) [Molindone hydrochloride],inactive: 0.928
22,CC1=C(C(=O)O)N2C(=O)[C@@H](NC(=O)[C@H](N)C3=CCC=CC3)[C@H]2SC1 [Cephradine],inactive: 1.09

row,SMILES,cell-surface Lgr5 expression
1,CCC1(c2ccccc2)NC(=O)N(C)C1=O (stereo not drawn) [Mephenytoin],inactive: 0.694
2,CC1(C)[C@H](C(=O)O)N2C(=O)C[C@H]2S1(=O)=O [Sulbactam],inactive: 1.08
3,Cc1ncc(CO)c(CO)c1O [Pyridoxine hydrochloride],inactive: 0.876
4,CO/N=C(\C(=O)N[C@@H]1C(=O)N2C(C(=O)O)=C(CSc3nc(=O)c(O)nn3C)CS[C@H]12)c1csc(N)n1 [Ceftriaxone],inactive: 0.933
5,C[C@]12CCC(=O)C=C1CC[C@@H]1[C@@H]2[C@@H](O)C[C@@]2(C)[C@H]1CC[C@]2(O)C(=O)COC(=O)CCC(=O)O [Hydrocortisone hemisuccinate monohydrate],active: 1.36
6,CCOC(=O)[C@H](CCc1ccccc1)N[C@H]1CCc2ccccc2N(CC(=O)O)C1=O [Benazepril hydrochloride],inactive: 0.872
7,COC1=C(OC)C(=O)C(CCCCCCCCCCO)=C(C)C1=O [Idebenone],inactive: 1.04
8,O=C1CCC(c2ccc(-n3ccnc3)cc2)=NN1 [Imazodan],inactive: 1.18
9,CCNC(=O)N1CCN(CCCC(c2ccc(F)cc2)c2ccc(F)cc2)CC1 [Amperozide],inactive: 1.4
10,OB(O)O [Boric acid],inactive: 1.05
11,COc1ccc(CN(CCN(C)C)c2ccccn2)cc1 [Pyrilamine maleate (Mepyramine maleate)],inactive: 1.19
12,COc1ccc(CN(CCN(C)C)c2ccccn2)cc1 [Pyrilamine],inactive: 0.94
13,CC(=O)c1ccc(S(=O)(=O)NC(=O)NC2CCCCC2)cc1 [Acetohexamide],inactive: 0.898
14,CCCCC[C@H](O)/C=C/[C@@H]1[C@@H](C/C=C\CCCC(=O)O)[C@@H](O)C[C@H]1O [Dinoprost tromethamine (Prostaglandin F2alpha tris salt)],inactive: 0.964
15,OC[C@H]1O[C@H]([S-])[C@H](O)[C@@H](O)[C@@H]1O.[Au+] [Aurothioglucose],inactive: 1.03
16,Cc1cc(=O)oc2cc(O)ccc12 [Hymecromone (4-Methylumbelliferone Free Acid)],inactive: 1.06
17,[Br-].[Na+] [Sodium bromide],inactive: 0.934
18,O=S(=O)(O)c1ccc2c(/N=N/c3ccc(S(=O)(=O)O)c4ccccc34)c(O)c(S(=O)(=O)O)cc2c1 [Amaranth],inactive: 1.02
19,[K+].[O]=[Mn](=[O])(=[O])[O-] [Potassium permanganate],inactive: 1.31
20,c1ccc(C2CN3CCSC3=N2)cc1 (stereo not drawn) [Tetramisole],inactive: 1.2
21,Cc1scc2c1N(C(=O)CN1CCN(C)CC1)c1ccccc1NC2=O [Telenzepine],active: 1.3

# Rewritten as tab-separated lines: part of the list above
row	SMILES	cell-surface Lgr5 expression
18	O=S(=O)(O)c1ccc2c(/N=N/c3ccc(S(=O)(=O)O)c4ccccc34)c(O)c(S(=O)(=O)O)cc2c1 [Amaranth]	inactive: 1.02
19	[K+].[O]=[Mn](=[O])(=[O])[O-] [Potassium permanganate]	inactive: 1.31
20	c1ccc(C2CN3CCSC3=N2)cc1 (stereo not drawn) [Tetramisole]	inactive: 1.2
